Assay results reported in patent US20090324602A1.
Results are given in words; binding and its absence hold for the method and conditions named. Some results given as binding are weak or reduced against the parent protein; the word gives no strength.

Chains of the proteins cited; added tags and fusions are not shown. Lines headed by an entry give the natural chain unless they say otherwise; changes in a name come on top. Residues count along the entry.
UniProt Q9NP84: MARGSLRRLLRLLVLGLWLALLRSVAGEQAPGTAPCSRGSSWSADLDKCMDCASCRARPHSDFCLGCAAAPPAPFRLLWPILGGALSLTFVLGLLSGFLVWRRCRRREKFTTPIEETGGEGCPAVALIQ
UniProt Q9CR75: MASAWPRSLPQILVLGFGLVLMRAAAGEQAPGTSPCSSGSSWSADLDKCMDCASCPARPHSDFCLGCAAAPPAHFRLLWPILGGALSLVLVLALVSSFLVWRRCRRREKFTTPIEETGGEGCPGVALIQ
UniProt O43508, residues 106-249: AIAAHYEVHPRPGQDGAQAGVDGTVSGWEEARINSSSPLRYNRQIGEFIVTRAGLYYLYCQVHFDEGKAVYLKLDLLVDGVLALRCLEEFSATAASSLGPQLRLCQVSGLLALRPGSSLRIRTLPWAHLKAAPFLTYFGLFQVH
UniProt O54907, residues 106-249: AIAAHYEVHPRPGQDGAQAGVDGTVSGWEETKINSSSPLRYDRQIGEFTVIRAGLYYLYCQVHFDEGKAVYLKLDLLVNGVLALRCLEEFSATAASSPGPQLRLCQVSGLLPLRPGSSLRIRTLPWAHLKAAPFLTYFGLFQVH

What was measured:
[1] = target: cynomolgus monkey Fn14, full-length, expressed on the cell surface (cynomolgus monkey); experiment: FACS (legend of FIG. 19B)
[2] = target: human Fn14, full-length, expressed on the cell surface (human) (UniProt Q9NP84); experiment: FACS (legend of FIG. 19B)
[3] = target: mouse Fn14, full-length, expressed on the cell surface (mouse) (UniProt Q9CR75); experiment: FACS (legend of FIG. 19B)
[4] = target: murine Fn14 W42A, expressed on the cell surface (mouse) (UniProt Q9CR75); experiment: FACS, transiently transfected 293E cells (FIG. 21A)
[5] = target: cynomolgus monkey Fn14 W42A, expressed on the cell surface (cynomolgus monkey); experiment: as above
[6] = target: human Fn14 W42A, expressed on the cell surface (human) (UniProt Q9NP84); experiment: as above
[7] = target: human Fn14 T33Q, expressed on the cell surface (human) (UniProt Q9NP84); experiment: FACS direct binding, cells expressing the huFn14 construct, MFI
[8] = target: human Fn14 H60K, expressed on the cell surface (human) (UniProt Q9NP84); experiment: as above
[9] = target: human Fn14 R56P, expressed on the cell surface (human) (UniProt Q9NP84); experiment: as above
[10] = target: human Fn14, full-length, expressed on the cell surface (human) (UniProt Q9NP84); experiment: as above
[11] = target: human Fn14 M50A, expressed on the cell surface (human) (UniProt Q9NP84); experiment: as above
[12] = target: human Fn14 S40R, expressed on the cell surface (human) (UniProt Q9NP84); experiment: as above
[13] = target: human Fn14 W42A, expressed on the cell surface (human) (UniProt Q9NP84); experiment: as above
[14] = target: human Fn14 L65Q, expressed on the cell surface (human) (UniProt Q9NP84); experiment: as above
[15] = target: human Fn14 R56K, expressed on the cell surface (human) (UniProt Q9NP84); experiment: as above
[16] = target: cynomolgus monkey Fn14, full-length, expressed on the cell surface (cynomolgus monkey); experiment: FACS direct binding to transfected cells, MFI
[17] = target: human Fn14, full-length, expressed on the cell surface (human) (UniProt Q9NP84); experiment: FACS direct binding to transfected cells, MFI
[18] = target: mouse Fn14, full-length, expressed on the cell surface (mouse) (UniProt Q9CR75); experiment: FACS direct binding to transfected cells, MFI
[19] = target: human Fn14 T33Q, expressed on the cell surface (human) (UniProt Q9NP84); experiment: direct binding FACS (FIG. 23A)
[20] = target: human Fn14 H60K, expressed on the cell surface (human) (UniProt Q9NP84); experiment: direct binding FACS (FIG. 23A)
[21] = target: human Fn14 R56P, expressed on the cell surface (human) (UniProt Q9NP84); experiment: direct binding FACS (FIG. 23A)
[22] = target: human Fn14 M50A, expressed on the cell surface (human) (UniProt Q9NP84); experiment: direct binding FACS (FIG. 23A)
[23] = target: human Fn14 S40R, expressed on the cell surface (human) (UniProt Q9NP84); experiment: direct binding FACS (FIG. 23A)
[24] = target: human Fn14 L65Q, expressed on the cell surface (human) (UniProt Q9NP84); experiment: direct binding FACS (FIG. 23A)
[25] = target: human Fn14 R56K, expressed on the cell surface (human) (UniProt Q9NP84); experiment: direct binding FACS (FIG. 23A)
[26] = target: cynomolgus monkey Fn14, full-length, expressed on the cell surface (cynomolgus monkey); experiment: direct binding FACS, Fn14-transfected 293E cells (FIG. 19B)
[27] = target: human Fn14, full-length, expressed on the cell surface (human) (UniProt Q9NP84); experiment: as above
[28] = target: mouse Fn14, full-length, expressed on the cell surface (mouse) (UniProt Q9CR75); experiment: as above
[29] = target: murine Fn14 W42A, expressed on the cell surface (mouse) (UniProt Q9CR75); experiment: FACS direct binding, 293E cells transiently expressing the Fn14 construct, MFI
[30] = target: cynomolgus monkey Fn14 W42A, expressed on the cell surface (cynomolgus monkey); experiment: as above
[31] = target: human Fn14, full-length, expressed on the cell surface (human) (UniProt Q9NP84); experiment: as above
[32] = target: human Fn14 W42A, expressed on the cell surface (human) (UniProt Q9NP84); experiment: as above
[33] = target: murine Fn14 W42A, expressed on the cell surface (mouse) (UniProt Q9CR75); experiment: FACS (legend of FIG. 21A)
[34] = target: cynomolgus monkey Fn14 W42A, expressed on the cell surface (cynomolgus monkey); experiment: FACS (legend of FIG. 21A)
[35] = target: human Fn14 W42A, expressed on the cell surface (human) (UniProt Q9NP84); experiment: FACS (legend of FIG. 21A)
[36] = target: cynomolgus monkey Fn14, full-length, expressed on the cell surface (cynomolgus monkey); experiment: FACS (legend of FIG. 19C)
[37] = target: human Fn14, full-length, expressed on the cell surface (human) (UniProt Q9NP84); experiment: FACS (legend of FIG. 19C)
[38] = target: mouse Fn14, full-length, expressed on the cell surface (mouse) (UniProt Q9CR75); experiment: FACS (legend of FIG. 19C)
[39] = target: cynomolgus monkey Fn14, full-length, expressed on the cell surface (cynomolgus monkey); experiment: direct binding FACS, Fn14-transfected 293E cells (FIG. 19C)
[40] = target: human Fn14, full-length, expressed on the cell surface (human) (UniProt Q9NP84); experiment: as above
[41] = target: mouse Fn14, full-length, expressed on the cell surface (mouse) (UniProt Q9CR75); experiment: as above

Measured: binding

Fc-huTWEAK fusion protein (from UniProt O43508 106-249) (Fc fusion)
not listed: [36] | [37] | [38] | [39] | [40] | [41]
binds: all other assays above

muFc-muTWEAK fusion protein (from UniProt O54907 106-249) (Fc fusion)
binds: [36] | [37] | [38] | [16] | [17] | [18] | [39] | [40] | [41]
